The values below come from PMC10191625.

Amino acid sequences for entries named in this document (tags omitted). A change or cut given only in a name is not applied to a line headed by its entry.
UniProt Q01371: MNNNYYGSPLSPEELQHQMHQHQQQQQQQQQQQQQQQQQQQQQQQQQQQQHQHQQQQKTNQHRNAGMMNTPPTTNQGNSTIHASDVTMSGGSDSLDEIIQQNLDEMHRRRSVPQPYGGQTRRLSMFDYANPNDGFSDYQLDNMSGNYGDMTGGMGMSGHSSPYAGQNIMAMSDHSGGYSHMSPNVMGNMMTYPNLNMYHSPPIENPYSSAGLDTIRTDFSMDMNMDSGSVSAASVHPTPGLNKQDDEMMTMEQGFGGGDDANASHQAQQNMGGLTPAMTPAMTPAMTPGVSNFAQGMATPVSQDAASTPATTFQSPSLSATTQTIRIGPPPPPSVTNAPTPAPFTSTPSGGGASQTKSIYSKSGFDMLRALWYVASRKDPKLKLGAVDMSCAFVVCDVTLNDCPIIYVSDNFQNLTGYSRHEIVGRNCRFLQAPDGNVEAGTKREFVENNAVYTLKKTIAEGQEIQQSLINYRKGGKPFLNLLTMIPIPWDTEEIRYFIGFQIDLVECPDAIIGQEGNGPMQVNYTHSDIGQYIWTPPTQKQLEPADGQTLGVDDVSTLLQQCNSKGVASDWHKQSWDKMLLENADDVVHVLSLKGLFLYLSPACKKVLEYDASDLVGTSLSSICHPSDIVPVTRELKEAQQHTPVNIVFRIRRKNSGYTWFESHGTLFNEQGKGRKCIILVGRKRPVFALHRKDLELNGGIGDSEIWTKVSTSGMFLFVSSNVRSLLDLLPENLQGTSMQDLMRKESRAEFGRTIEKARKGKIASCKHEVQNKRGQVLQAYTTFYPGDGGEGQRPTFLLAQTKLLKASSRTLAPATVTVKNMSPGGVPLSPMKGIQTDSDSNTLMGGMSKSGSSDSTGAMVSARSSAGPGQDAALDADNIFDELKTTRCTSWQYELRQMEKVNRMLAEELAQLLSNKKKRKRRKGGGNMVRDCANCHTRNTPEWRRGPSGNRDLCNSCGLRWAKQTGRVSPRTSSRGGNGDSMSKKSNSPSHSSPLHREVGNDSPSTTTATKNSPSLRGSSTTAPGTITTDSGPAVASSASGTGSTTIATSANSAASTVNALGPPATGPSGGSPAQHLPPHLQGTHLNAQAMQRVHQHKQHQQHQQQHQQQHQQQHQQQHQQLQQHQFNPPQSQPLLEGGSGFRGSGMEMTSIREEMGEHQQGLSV

Results are given in words; binding and its absence hold for the method and conditions named. In cells and extracts the contact can be indirect. Sequences can lack the tags named with a protein.

For this assay, the target named is T1, Myc.CPC-1 (Neurospora crassa) (UniProt P11115).
T1 sequence: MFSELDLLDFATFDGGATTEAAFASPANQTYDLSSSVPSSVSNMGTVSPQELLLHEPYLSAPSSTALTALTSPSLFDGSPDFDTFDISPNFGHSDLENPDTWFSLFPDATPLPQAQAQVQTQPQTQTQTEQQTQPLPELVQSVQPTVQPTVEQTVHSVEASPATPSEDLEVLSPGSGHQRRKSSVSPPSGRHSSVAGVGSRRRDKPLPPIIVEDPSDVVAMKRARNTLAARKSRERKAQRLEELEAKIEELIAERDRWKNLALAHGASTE
Kind of assay: co-IP; Myc-tagged protein expressed in the WT strain; immunoprecipitation with Myc antibody, GammaBind G Sepharose, 2 mg protein extract; cultures in constant light; blots for endogenous WC-1 and WC-2.

On to “White Collar complex (WC-1 and WC-2) (from UniProt Q01371 1-1167; P78714 1-530)”, for which the binding result is “no binding”.
